Experimental data as given in patent publication US20100068806A1, “NOVEL METHODS AND REAGENTS DIRECTED TO PRODUCTION OF CELLS” (SUOMEN PUNAINEN RISTI, VERIPALVELU, priority 2007, published 2010).

Test system: glycoconjugates (N-glycans, O-glycans, glycosphingolipids) of hESC, EB, st.3, CB CD34+ & CD133+, CB MNC, BM & CB MSC, adipo/osteo cells
Experiment: Summary of occurrence of terminal glycan epitopes in glycoconjugates of stem cells and differentiated cells (Table 28)
Parameters: species or system human
Conditions: prefix N = N-glycans

LacdiNAc
+/−: Occurrence of terminal epitope, BM & CB MSC (BM & CB MSC, O = O-glycans, L = glycosphingolipids) | Occurrence of terminal epitope, CB CD34+ & CD133+ (CB CD34+ & CD133+, O = O-glycans, L = glycosphingolipids) | Occurrence of terminal epitope, adipo/osteo (cells differentiated into adipocyte or osteoblast direction from MSC) | Occurrence of terminal epitope, st.3 (stage 3 differentiated cells, O = O-glycans, L = glycosphingolipids)
